According to the supplement of paper PMC10849652:
Some of the results follow.

The chains behind the UniProt entries cited, without tags or fusion partners. Where a name states a change or a piece, a line headed by the entry shows the natural chain unless it says otherwise.
UniProt Q96E29: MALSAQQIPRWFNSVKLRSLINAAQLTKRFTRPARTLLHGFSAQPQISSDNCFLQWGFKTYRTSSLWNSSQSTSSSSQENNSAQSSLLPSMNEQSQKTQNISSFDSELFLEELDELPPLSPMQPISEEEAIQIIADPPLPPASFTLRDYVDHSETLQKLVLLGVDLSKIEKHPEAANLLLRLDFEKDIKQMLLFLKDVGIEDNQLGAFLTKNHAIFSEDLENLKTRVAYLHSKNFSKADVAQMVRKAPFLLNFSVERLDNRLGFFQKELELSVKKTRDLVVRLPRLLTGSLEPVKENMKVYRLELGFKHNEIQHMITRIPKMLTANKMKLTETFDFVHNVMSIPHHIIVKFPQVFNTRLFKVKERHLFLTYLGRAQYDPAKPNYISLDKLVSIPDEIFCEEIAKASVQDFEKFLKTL
UniProt P46199: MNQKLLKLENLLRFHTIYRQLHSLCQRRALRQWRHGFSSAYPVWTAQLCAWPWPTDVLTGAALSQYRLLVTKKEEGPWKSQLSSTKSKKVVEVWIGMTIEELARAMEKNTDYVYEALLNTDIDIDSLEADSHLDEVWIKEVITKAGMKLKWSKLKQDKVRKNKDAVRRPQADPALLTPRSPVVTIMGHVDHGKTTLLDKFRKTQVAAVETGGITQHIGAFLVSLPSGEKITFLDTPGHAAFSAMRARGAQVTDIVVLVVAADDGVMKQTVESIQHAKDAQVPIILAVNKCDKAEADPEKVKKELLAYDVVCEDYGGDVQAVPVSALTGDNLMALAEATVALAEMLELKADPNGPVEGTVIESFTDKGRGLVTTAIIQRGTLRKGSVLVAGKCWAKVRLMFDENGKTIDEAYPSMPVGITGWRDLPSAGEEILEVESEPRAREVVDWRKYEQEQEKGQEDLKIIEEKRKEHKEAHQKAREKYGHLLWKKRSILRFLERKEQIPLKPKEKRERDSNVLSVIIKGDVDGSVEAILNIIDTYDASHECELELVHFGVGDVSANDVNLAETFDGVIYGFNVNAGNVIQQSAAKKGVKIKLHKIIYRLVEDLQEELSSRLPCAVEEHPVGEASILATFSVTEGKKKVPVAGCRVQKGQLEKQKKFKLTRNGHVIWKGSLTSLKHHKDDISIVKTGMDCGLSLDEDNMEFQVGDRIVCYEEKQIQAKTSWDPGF
UniProt Q9UBK8: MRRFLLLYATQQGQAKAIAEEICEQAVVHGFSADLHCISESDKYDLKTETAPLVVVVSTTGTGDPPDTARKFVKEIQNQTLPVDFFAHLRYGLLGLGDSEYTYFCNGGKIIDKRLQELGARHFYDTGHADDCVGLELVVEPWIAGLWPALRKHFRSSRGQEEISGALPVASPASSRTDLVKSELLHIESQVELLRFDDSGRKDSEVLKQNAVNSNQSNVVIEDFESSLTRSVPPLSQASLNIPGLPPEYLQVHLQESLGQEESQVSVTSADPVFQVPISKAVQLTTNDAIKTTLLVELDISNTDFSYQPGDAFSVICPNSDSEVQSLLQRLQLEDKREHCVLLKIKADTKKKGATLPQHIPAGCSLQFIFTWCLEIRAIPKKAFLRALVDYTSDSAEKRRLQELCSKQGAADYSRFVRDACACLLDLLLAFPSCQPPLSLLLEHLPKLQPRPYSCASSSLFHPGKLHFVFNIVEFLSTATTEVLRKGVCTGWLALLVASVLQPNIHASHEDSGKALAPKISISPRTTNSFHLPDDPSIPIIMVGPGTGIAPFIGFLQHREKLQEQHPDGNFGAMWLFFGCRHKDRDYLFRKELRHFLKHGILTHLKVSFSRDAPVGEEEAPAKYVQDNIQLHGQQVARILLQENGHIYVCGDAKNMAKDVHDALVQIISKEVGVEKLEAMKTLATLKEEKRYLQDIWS
UniProt Q9Y6C9: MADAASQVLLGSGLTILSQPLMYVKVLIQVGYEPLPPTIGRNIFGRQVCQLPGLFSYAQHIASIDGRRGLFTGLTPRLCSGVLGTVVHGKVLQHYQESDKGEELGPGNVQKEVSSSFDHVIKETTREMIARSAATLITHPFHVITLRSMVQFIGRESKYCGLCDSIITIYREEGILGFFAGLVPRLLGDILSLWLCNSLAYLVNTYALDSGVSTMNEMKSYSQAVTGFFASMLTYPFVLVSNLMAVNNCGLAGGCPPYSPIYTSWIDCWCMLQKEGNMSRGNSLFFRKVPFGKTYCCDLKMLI
UniProt Q68DK7: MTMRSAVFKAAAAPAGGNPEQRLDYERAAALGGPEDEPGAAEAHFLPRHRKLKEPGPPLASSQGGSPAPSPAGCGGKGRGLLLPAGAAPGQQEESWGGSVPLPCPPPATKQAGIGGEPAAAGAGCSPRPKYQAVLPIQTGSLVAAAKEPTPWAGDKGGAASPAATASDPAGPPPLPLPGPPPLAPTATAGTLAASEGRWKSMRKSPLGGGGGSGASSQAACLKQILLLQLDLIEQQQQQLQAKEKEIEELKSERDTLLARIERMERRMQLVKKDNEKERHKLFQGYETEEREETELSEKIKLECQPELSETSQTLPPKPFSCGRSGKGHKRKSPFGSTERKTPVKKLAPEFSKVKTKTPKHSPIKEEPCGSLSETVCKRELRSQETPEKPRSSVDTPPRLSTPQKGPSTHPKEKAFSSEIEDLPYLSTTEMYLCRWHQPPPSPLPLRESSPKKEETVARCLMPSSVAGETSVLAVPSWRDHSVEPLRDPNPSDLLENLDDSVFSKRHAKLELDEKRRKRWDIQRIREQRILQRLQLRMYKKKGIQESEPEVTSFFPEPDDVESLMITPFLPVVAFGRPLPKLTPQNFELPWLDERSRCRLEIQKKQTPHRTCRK
UniProt P03905, whole entry, looked up: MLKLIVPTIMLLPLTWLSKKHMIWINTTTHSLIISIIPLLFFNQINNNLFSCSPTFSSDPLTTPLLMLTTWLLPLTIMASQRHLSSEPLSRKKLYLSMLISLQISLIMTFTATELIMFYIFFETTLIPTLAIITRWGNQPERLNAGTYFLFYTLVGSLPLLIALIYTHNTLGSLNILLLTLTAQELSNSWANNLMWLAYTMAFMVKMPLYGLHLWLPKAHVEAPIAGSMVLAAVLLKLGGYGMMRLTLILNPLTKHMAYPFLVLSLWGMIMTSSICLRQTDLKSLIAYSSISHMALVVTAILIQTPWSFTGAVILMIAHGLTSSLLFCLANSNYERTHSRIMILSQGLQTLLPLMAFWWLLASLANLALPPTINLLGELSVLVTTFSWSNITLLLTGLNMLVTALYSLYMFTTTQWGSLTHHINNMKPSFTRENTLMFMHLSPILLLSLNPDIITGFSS
UniProt P00156: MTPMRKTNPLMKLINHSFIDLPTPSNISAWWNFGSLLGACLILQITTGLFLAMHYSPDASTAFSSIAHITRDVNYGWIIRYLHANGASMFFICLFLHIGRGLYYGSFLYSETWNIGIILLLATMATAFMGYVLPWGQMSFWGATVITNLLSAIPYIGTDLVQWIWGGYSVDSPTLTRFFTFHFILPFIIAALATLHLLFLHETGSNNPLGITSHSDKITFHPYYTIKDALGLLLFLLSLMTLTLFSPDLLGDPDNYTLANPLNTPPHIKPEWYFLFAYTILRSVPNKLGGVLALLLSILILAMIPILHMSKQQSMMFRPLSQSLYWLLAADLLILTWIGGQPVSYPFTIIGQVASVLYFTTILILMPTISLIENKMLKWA
UniProt P82909: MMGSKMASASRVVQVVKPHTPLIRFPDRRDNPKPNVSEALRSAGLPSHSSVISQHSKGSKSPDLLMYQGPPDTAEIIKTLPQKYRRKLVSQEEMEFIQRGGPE
UniProt Q9NZJ7, whole entry, looked up: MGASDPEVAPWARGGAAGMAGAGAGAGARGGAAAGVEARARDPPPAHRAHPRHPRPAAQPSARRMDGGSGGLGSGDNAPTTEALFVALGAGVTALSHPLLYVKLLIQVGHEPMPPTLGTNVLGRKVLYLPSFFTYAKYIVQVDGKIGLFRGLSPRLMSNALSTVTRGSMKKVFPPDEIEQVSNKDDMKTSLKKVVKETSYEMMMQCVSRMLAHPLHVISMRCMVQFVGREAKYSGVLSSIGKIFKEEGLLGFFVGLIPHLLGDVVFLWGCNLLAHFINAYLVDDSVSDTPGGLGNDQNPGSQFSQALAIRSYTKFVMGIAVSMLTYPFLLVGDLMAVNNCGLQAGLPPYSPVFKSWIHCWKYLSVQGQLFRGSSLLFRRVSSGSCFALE
UniProt Q13615: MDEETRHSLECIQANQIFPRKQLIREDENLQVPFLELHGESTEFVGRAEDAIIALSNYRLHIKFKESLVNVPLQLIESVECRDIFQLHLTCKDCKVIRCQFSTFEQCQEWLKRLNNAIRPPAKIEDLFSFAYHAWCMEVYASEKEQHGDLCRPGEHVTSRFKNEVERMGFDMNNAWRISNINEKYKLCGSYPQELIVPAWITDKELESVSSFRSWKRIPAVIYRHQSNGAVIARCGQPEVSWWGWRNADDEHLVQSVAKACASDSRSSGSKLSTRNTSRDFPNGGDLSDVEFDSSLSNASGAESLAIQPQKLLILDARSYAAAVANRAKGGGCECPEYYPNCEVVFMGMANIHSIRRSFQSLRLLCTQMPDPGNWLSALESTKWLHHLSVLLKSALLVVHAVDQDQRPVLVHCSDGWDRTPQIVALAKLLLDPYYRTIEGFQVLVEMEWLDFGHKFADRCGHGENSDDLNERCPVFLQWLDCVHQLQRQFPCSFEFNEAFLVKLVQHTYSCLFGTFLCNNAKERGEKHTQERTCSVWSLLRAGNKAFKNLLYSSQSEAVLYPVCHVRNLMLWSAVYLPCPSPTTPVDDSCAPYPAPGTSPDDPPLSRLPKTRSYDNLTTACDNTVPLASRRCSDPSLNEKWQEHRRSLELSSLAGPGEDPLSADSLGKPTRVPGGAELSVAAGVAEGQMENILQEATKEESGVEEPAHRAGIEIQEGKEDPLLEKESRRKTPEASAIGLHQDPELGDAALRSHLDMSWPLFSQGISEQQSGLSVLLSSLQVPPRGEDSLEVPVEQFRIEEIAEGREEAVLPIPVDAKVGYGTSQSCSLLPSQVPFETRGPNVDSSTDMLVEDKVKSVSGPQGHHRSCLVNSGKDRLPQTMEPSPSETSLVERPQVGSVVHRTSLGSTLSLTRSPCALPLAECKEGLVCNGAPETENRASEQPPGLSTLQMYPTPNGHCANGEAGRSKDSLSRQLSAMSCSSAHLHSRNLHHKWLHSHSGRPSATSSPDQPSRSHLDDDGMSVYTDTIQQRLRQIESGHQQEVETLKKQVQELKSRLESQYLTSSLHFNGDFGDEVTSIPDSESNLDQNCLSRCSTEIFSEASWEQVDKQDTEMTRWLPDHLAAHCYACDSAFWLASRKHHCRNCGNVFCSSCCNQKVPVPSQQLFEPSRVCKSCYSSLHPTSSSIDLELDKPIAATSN
UniProt O94776: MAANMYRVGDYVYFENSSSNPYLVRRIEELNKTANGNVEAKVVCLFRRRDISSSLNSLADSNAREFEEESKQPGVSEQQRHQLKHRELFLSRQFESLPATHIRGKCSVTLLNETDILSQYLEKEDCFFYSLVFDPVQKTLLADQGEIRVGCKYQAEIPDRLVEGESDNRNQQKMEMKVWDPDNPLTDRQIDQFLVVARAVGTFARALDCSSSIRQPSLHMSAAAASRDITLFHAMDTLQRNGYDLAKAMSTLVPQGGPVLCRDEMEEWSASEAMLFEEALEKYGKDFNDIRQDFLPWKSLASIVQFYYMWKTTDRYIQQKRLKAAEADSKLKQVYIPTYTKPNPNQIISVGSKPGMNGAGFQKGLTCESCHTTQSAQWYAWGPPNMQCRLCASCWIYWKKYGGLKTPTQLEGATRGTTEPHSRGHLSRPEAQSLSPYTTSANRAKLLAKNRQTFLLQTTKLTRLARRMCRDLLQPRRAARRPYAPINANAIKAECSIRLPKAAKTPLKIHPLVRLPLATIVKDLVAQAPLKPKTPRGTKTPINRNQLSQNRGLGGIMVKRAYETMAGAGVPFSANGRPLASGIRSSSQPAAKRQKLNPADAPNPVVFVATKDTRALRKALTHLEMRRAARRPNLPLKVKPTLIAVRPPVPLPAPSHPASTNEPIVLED
UniProt P58546, whole entry, looked up: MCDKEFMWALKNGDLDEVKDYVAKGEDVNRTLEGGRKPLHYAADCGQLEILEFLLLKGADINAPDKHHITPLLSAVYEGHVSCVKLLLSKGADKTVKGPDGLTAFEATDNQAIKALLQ
UniProt Q96E11: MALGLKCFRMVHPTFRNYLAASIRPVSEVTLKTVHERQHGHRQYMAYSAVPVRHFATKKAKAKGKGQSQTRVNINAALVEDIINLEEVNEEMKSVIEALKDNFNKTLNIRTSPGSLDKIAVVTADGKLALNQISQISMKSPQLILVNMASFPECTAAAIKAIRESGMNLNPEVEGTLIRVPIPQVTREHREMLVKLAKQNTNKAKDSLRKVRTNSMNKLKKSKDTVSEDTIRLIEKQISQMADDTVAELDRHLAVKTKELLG

Columns and labels:
Test in all cases: log2 fold change, soluble protein after heating vs DMSO (PISA); higher = thermal stabilisation; K562 lysate, 10 uM; active = over 0.2 and 3.5 SD of the protein, either way, in both replicates (recomputed)
[1] = compound: CS(=O)(=O)CCNCc1ccc(-c2ccc3ncnc(Nc4ccc(OCc5cccc(F)c5)c(Cl)c4)c3c2)o1 [lapatinib]
Summary of the method: (§1)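 A 30 min treatment with 10 μM compound was applied to crude K562 extract at 1 mg/mL protein in PBS pH 7.4 with 1 mM MgCl2. Heating for 3 min spanned 48°C-58°C, after which aliquots were pooled, adjusted to 0.5% NP-40 at 4°C and spun at 21,000xg for 90 min. TMTpro 16plex LC-MS/MS of the supernatant, with channel sums equalised, gave values recorded as log-two fold change in thermal stability against solvent controls, from duplicates.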

[2] = compound: CS(=O)(=O)N1CCN(Cc2cc3nc(-c4cccc5[nH]ncc45)nc(N4CCOCC4)c3s2)CC1 [pictilisib]
Summary of the method: as §1

[3] = compound: C[C@@H](Oc1cc(-c2cnn(C3CCNCC3)c2)cnc1N)c1c(Cl)ccc(F)c1Cl [crizotinib]
Summary of the method: as §1

[4] = compound: C[C@H](C1=CC=C(C=C1)C(=O)NC2=C3C=CNC3=NC=C2)N
Summary of the method: as §1

[5] = compound: C[C@H](Nc1ncnc2nc[nH]c12)c1cc2cccc(Cl)c2c(=O)n1-c1ccccc1 [duvelisib]
Summary of the method: as §1

[6] = compound: Cc1cc(Nc2cc(CN3CCOCC3)c3nc(C)c(Cc4ccc(Cl)cc4F)n3n2)n[nH]1 [gandotinib]
Summary of the method: as §1

[7] = compound: Cc1cc(Nc2cc(N3CCN(C)CC3)nc(Sc3ccc(NC(=O)C4CC4)cc3)n2)n[nH]1 [tozasertib]
Summary of the method: as §1

[8] = compound: Cc1ccc(-n2nc(C(C)(C)C)cc2NC(=O)Nc2ccc(OCCN3CCOCC3)c3ccccc23)cc1 [doramapimod]
Summary of the method: as §1

[9] = compound: Cc1ccc(NC(=O)c2ccc(CN3CC[C@H](N(C)C)C3)c(C(F)(F)F)c2)cc1Nc1nccc(-c2cncnc2)n1 [bafetinib]
Summary of the method: as §1

[10] = compound: Cc1cccc(CC(=O)N2CCc3c2ccc(-c2cn(C)c4ncnc(N)c24)c3F)n1
Summary of the method: as §1

Measured: log2 fold change

MTERF3 (UniProt Q96E29)
inactive: [1] -0.203 | [2] 0.01 | [3] -0.026 | [4] 0.03 | [5] 0.02 | [6] 0.089 | [7] 0.002 | [8] -0.002 | [9] -0.191 | [10] 0.031

MSH6 (UniProt P52701)
inactive: [1] -0.004 | [2] -0.005 | [3] -0.076 | [4] -0.003 | [5] 0.014 | [6] -0.087 | [7] 0.013 | [8] 0.037 | [9] -0.051 | [10] 0.022

MRPL46 (UniProt Q9H2W6)
inactive: [1] 0.019 | [2] 0.096 | [3] -0.011 | [5] 0.033 | [6] -0.09 | [7] 0.008 | [8] 0.024 | [9] 0.034 | [10] -0.073
active: [4] 0.452

MRPS18A isoform 2 (UniProt Q9NVS2)
inactive: [1] 0.005 | [2] -0.046 | [3] -0.02 | [4] 0.262 | [5] -0.133 | [6] -0.164 | [7] 0.043 | [8] -0.005 | [9] 0 | [10] -0.226

MRPL30 isoform 2 (UniProt Q8TCC3)
inactive: [1] 0.03 | [2] -0.029 | [3] -0.094 | [5] 0.068 | [7] 0.158 | [8] 0.013 | [9] 0.043
active: [4] 0.746 | [6] -0.373 | [10] -0.458

MTIF2 (UniProt P46199)
inactive: [1] 0.017 | [2] 0.008 | [3] -0.05 | [4] 0.055 | [5] 0.005 | [6] -0.071 | [7] -0.003 | [8] 0.022 | [9] -0.066 | [10] -0.07

MTRR isoform 1 (UniProt Q9UBK8)
inactive: [1] 0.068 | [2] -0.007 | [3] -0.024 | [4] -0.001 | [5] 0.015 | [6] -0.021 | [7] -0.003 | [8] 0.037 | [9] -0.013 | [10] 0.029

MRPL42 (UniProt Q9Y6G3)
inactive: [1] -0.001 | [2] 0.004 | [3] 0.005 | [4] 0.011 | [5] 0.006 | [6] 0.014 | [7] -0.064 | [8] 0.027 | [9] -0.042 | [10] 0.006

MTCH2 (UniProt Q9Y6C9)
inactive: [1] -0.023 | [2] -0.018 | [3] -0.059 | [4] -0.144 | [5] -0.011 | [6] 0.142 | [7] -0.028 | [8] 0.024 | [9] -0.04 | [10] 0.022

MSL1 (UniProt Q68DK7)
inactive: [1] -0.06 | [2] 0.026 | [3] -0.038 | [4] -0.096 | [5] 0.057 | [6] 0.108 | [7] 0.028 | [8] 0.109 | [9] 0.006 | [10] 0.074

MRPL33 (UniProt O75394)
inactive: [1] 0.081 | [2] -0.013 | [3] 0.079 | [4] 0.013 | [5] -0.189 | [6] 0.038 | [7] 0.023 | [8] -0.033 | [9] -0.003 | [10] -0.05

MRPL28 (UniProt Q13084)
active: [4] 0.482
inactive: [1] -0.046 | [2] 0.03 | [3] -0.08 | [5] 0.043 | [6] -0.246 | [7] 0.059 | [8] -0.012 | [9] -0.04 | [10] -0.228

MRPS18C (UniProt Q9Y3D5)
inactive: [1] 0.072 | [2] -0.043 | [3] -0.092 | [4] 0.01 | [5] 0.002 | [6] 0.035 | [7] 0.031 | [8] 0.046 | [9] -0.023 | [10] -0.059

MT-ND4 (UniProt P03905)
inactive: [1] -0.026 | [2] -0.099 | [3] -0.125 | [4] -0.035 | [5] 0.04 | [6] -0.011 | [7] -0.038 | [8] 0.061 | [9] -0.125 | [10] 0.072

MT-CYB (UniProt P00156)
active: [4] -0.856 | [6] 0.568
inactive: [1] -0.054 | [2] -0.025 | [3] -0.126 | [5] 0.094 | [7] -0.074 | [8] -0.05 | [9] 0.05 | [10] 0.385

MRPS22 (UniProt P82650)
inactive: [1] -0.003 | [2] -0.079 | [3] -0.007 | [4] 0.014 | [5] 0.05 | [6] -0.077 | [7] 0.071 | [8] 0.072 | [9] -0.042 | [10] -0.024

MRPL51 (UniProt Q4U2R6)
inactive: [1] -0.051 | [2] -0.016 | [3] 0.056 | [4] -0.201 | [5] -0.004 | [6] 0.058 | [7] 0.083 | [8] -0.247 | [9] 0.02 | [10] 0.091

MRPL45 (UniProt Q9BRJ2)
inactive: [1] -0.037 | [2] 0.041 | [3] 0.051 | [4] -0.045 | [5] 0.051 | [6] 0.027 | [7] -0.008 | [8] -0.025 | [9] -0.019 | [10] 0

MRPL39 isoform 2 (UniProt Q9NYK5)
inactive: [1] 0.006 | [2] -0.036 | [3] -0.021 | [4] 0.138 | [5] 0.006 | [6] 0.03 | [7] 0.066 | [8] 0.035 | [9] 0.006 | [10] -0.059

MRPL27 (UniProt Q9P0M9)
inactive: [1] 0.02 | [2] 0.017 | [3] -0.046 | [5] 0.02 | [6] -0.249 | [7] 0.029 | [8] 0.011 | [9] 0.012 | [10] -0.076
active: [4] 0.658

MRPS36 (UniProt P82909)
inactive: [1] 0.095 | [2] -0.024 | [3] -0.043 | [4] -0.162 | [5] 0 | [6] 0.063 | [7] -0.039 | [8] 0.048 | [9] 0.033 | [10] 0.038

MT-CO1 (UniProt P00395)
inactive: [1] -0.046 | [2] -0.002 | [3] 0.08 | [4] -0.13 | [5] 0.007 | [6] 0.088 | [7] -0.06 | [8] -0.07 | [9] 0.041 | [10] -0.003

MTCH1 (UniProt Q9NZJ7)
inactive: [1] 0.018 | [2] -0.017 | [3] -0.021 | [4] -0.172 | [5] 0.016 | [6] 0.123 | [7] 0.009 | [8] -0.001 | [9] 0.122 | [10] 0.063

MTMR3 (UniProt Q13615)
inactive: [1] -0.062 | [2] 0.009 | [3] -0.093 | [4] -0.037 | [5] -0.03 | [6] 0.016 | [7] 0.043 | [8] -0.077 | [9] -0.007 | [10] 0.037

MTA2 (UniProt O94776)
inactive: [1] -0.003 | [2] 0.017 | [3] 0 | [4] 0.013 | [5] 0 | [6] -0.033 | [7] -0.016 | [8] 0.031 | [9] -0.009 | [10] 0.021

MRPL41 (UniProt Q8IXM3)
inactive: [1] -0.004 | [2] -0.003 | [3] 0.047 | [4] -0.046 | [5] 0.036 | [6] 0.041 | [7] -0.036 | [8] 0.013 | [9] -0.034 | [10] 0.024

MRPL32 (UniProt Q9BYC8)
inactive: [1] 0.053 | [2] -0.027 | [3] -0.006 | [4] -0.029 | [5] 0.024 | [6] 0.036 | [7] 0.015 | [8] -0.025 | [9] -0.001 | [10] 0.033

MTPN (UniProt P58546)
inactive: [1] 0.155 | [2] 0.042 | [3] 0.04 | [4] 0.238 | [5] -0.002 | [6] -0.198 | [7] 0.039 | [8] -0.05 | [9] -0.014 | [10] -0.237

MRPL52 (UniProt Q86TS9)
inactive: [1] 0.187 | [2] 0.072 | [3] 0.109 | [4] -0.123 | [5] -0.01 | [6] 0.062 | [7] 0.052 | [8] -0.192 | [9] 0.03 | [10] 0.049

MRRF (UniProt Q96E11)
inactive: [1] -0.012 | [2] 0.017 | [3] 0.014 | [4] 0 | [5] -0.044 | [6] 0.049 | [7] -0.015 | [8] -0.02 | [9] 0 | [10] -0.01
